Among all 300,000 compounds or so, about 5,400 (1.8%) were called active. Inconclusive results, whose numbers are uncertain, are shown with a selection of clear calls. Calls come from the whole dose curve; tested in HEK293 cells. Potencies of inconclusive entries are doubtful fits and often do not repeat.
experiment: qHTS for inhibitors of binding or entry into cells for Marburg Virus; conditions: Marburg virus pseudotyped entry inhibition, cell reporter; activity change, negative = inhibition: at 37.8 µM (top of the series) unless noted
% is set by controls: 0 for no effect and ±100 for the full control effect; potency is the fitted concentration of half-maximal effect.

Structure (SMILES)	activity change, negative = inhibition	Potency
O=C(NCCCCO)c1ccc2c3c(cccc13)CC2	inactive: 28.8% [at 46.1 µM]	–
COCCOC(=O)C1=C(C)NC(C)=C(C(=O)OC/C=C/c2ccccc2)C1c1cccc([N+](=O)[O-])c1 (configuration not stated)	–	inconclusive: 5.8 µM [inhibitor, partial curve]
Cc1ccc(NN2C(=O)C=C(c3ccc(Cl)cc3)C2=O)cc1	–	inconclusive: 35.5 µM [inhibitor, single point]
Cc1cc(C)cc(NC(=O)c2oc3ccccc3c2COc2ccccc2)c1	–	inconclusive: 22.4 µM [inhibitor, single point]
Cc1cccc(OCC(=O)O/N=C(\N)c2ccc(Br)cc2)c1	–	inconclusive: 14.1 µM [activator, single point]
CNCC(C)COc1ccccc1OCc1ccccc1 (configuration not stated)	–	inconclusive: 16.4 µM [inhibitor, single point]
COc1ccc(-c2nn(-c3ccccc3)cc2/C=C2/SC(=S)N(CCC(=O)O)C2=O)c(C)c1	–	inconclusive: 11.2 µM [inhibitor, partial curve, poor fit]
Cc1cc(C)c2c(=O)[nH][nH]c2n1	–	inconclusive: 3.16 µM [activator, full curve]
COc1cc(C2c3c(oc4c(C)cc(C)cc4c3=O)C(=O)N2Cc2cccnc2)ccc1O (configuration not stated)	–	inactive
CCOc1ccc2c(ccc(/C=C/c3cc(C)c4cccnc4c3O)[n+]2C)c1	–	active: 15.8 µM
c1ccc(Nc2ccc3c4c(cccc24)CC3)cc1	inactive: -25.3%	–
COc1ccccc1/C=C/c1nc(C#N)c(NCc2ccccc2)o1	inactive: -2.27% [at 46.1 µM]	–
CC(Sc1nnnn1C)C(=O)Nc1ccccc1-c1ccccc1 (configuration not stated)	inactive: -2.17%	–
Cc1cccc(-c2nc(=S)c3c(n2Cc2ccco2)CCCC3)c1	inactive: -24.7%	–
Cc1ccnc(Sc2ccc([N+](=O)[O-])cc2[N+](=O)[O-])n1	–	active: 13 µM
Cc1ccc(SC(C)C(=O)N2CCCC2)cc1 (configuration not stated)	inactive: 4.53%	–
CCc1cc(CNC(=O)c2cccc(OC3CCN(S(C)(=O)=O)CC3)c2)on1	–	inconclusive: 7.08 µM [inhibitor, partial curve, poor fit]
CN1CCC2(CC1)c1ccccc1-c1ccccc12	–	inconclusive: 10 µM [inhibitor, partial curve, poor fit]
CNc1ccc(/C=C2\COc3ccccc3C2=O)cc1[N+](=O)[O-]	–	inconclusive: 5.62 µM [activator, partial curve]
COc1ccc(-n2c(CCc3ccccc3)nnc2SCC(=O)NCc2ccccc2)cc1	–	inconclusive: 10 µM [inhibitor, single point]
Cc1occc1C(=O)NCCCc1ccccc1	–	inconclusive: 1.26 µM [activator, single point]
CCOC(=O)c1cnc2c(ccc3ccccc32)c1Nc1ccccc1O	inactive: 11.4% [at 46.1 µM]	–
C=C1CCC[C@]2(C)C[C@H]3OC(=O)C(CNC(C)CCCC(C)C)[C@H]3CC12 (some centres not stated)	–	inconclusive: 0.398 µM [inhibitor, full curve, poor fit]

Record cards (already shown):
Cc1ccc(SC(C)C(=O)N2CCCC2)cc1 (configuration not stated) as listed: activity change, negative = inhibition: inactive: 4.53%
CNCC(C)COc1ccccc1OCc1ccccc1 (configuration not stated) as listed: Potency: inconclusive: 16.4 µM [inhibitor, single point]
c1ccc(Nc2ccc3c4c(cccc24)CC3)cc1 as listed: activity change, negative = inhibition: inactive: -25.3%
Cc1cccc(OCC(=O)O/N=C(\N)c2ccc(Br)cc2)c1 as listed: Potency: inconclusive: 14.1 µM [activator, single point]

Following part

Structure (SMILES)	activity change, negative = inhibition	Potency
Cc1ccc(C2Nc3cccc4cccc(c34)N2)s1	–	inconclusive: 0.282 µM [activator, partial curve, poor fit]
Cc1cc(C)c2cc(CN(Cc3ccc4c(c3)OCO4)Cc3nnnn3Cc3ccco3)c(=O)[nH]c2c1	–	inconclusive: 28.2 µM [inhibitor, single point]
COc1ccc(Cc2nnc(NC(=O)c3ccc(Cl)c([N+](=O)[O-])c3)s2)cc1	inactive: 0.476%	–
COc1cc(/C=N/Nc2ccc([N+](=O)[O-])cc2S(=O)(=O)N2CCOCC2)cc(OC)c1OC	–	inconclusive: 17.8 µM [inhibitor, single point]
CCN(CC)S(=O)(=O)c1ccc(/C=C/C(=O)Nc2ccc(F)c(F)c2F)cc1	–	inconclusive: 5.17 µM [inhibitor, full curve, poor fit]
O=C(CSCc1c(F)cccc1F)Nc1ccccc1	–	inconclusive: 17.8 µM [activator, partial curve, poor fit]
CS(=O)(=O)N1CCN(c2ccccc2NC(=O)c2ccc3ccccc3c2)CC1	inactive: -8.59% [at 46.1 µM]	–
O=C(O)Cc1ccc(-n2cccc2)cc1	inactive: 1.37% [at 46.1 µM]	–
COc1ccc(-c2noc(CN(C(=O)c3ccc(C)cc3C)C(C)C)n2)cc1	–	inconclusive: 25.1 µM [inhibitor, single point]
O=c1ccccn1CCOc1ccccc1Cl	inactive: 4.86%	–
Cc1ccc(N(Cc2cccs2)C(=O)c2ccc(OC(C)C)cc2)cc1	–	inconclusive: 28.2 µM [inhibitor, single point]
COc1cccc(OCCSc2nc3ccccc3n2CC(=O)N2CCOCC2)c1	inactive: -22.3% [at 46.1 µM]	–
Cn1c(SCc2ccc(F)cc2)nc2ccc(C(=O)NCc3cccc(Cl)c3)cc21	–	inconclusive: 35.5 µM [inhibitor, single point]
COc1ccc(N2CCN(C(=O)Cc3csc(NC(=O)Nc4ccccc4OC)n3)CC2)cc1	–	inconclusive: 10 µM [inhibitor, partial curve, poor fit]
CCOc1ccc(NC(=O)N(CC(C)C)CC(C)C)cc1	–	inconclusive: 0.184 µM [inhibitor, partial curve, poor fit]
COc1cccc(C(=O)Nc2cccc(C(=O)NC3=NN(c4c(Cl)cc(Cl)cc4Cl)C(=O)C3)c2)c1	–	inconclusive: 1.83 µM [inhibitor, partial curve]
Cc1cc(=O)n2nc(N3CCC(C(=O)Nc4ccc(Br)c(C)c4)CC3)sc2n1	inactive: -18.3% [at 46.1 µM]	–
Cc1nn(Cc2ccc(Cl)cc2)c(C)c1NC(=O)Cn1nc([N+](=O)[O-])c(Cl)c1C	–	inconclusive: 2 µM [activator, partial curve, poor fit]
O=C(CSc1ccc(-c2ccccc2)nn1)Nc1ccc2c(c1)OCCO2	–	inconclusive: 20.6 µM [inhibitor, single point]
CC1CCCN(c2ccc(C(=O)Nc3cccnc3)cc2[N+](=O)[O-])C1 (configuration not stated)	–	inconclusive: 14.1 µM [inhibitor, single point]
COc1ccc(C2C(C(=O)/C=C/c3ccco3)=C(O)C(=O)N2CCN2CCOCC2)cc1 (configuration not stated)	–	inconclusive: 1.26 µM [inhibitor, single point]
CC(C)(C)c1ccc(CN2C(=O)CN=C(c3ccccc3)c3ccccc32)cc1	–	inconclusive: 29.1 µM [inhibitor, single point]
O=C(NCC(=O)N(c1ccccc1F)C(C(=O)NC1CCCC1)c1ccco1)c1ccco1 (configuration not stated)	–	inconclusive: 12.6 µM [inhibitor, partial curve, poor fit]

Structure (SMILES)	activity change, negative = inhibition	Potency
CC1CCCCN1C(=O)c1ccc(OC2CCN(S(=O)(=O)N(C)C)CC2)cc1 (configuration not stated)	–	inconclusive: 7.94 µM [activator, partial curve, poor fit]
CCCCOc1ccc(C(=O)NNC(=O)C2C3CCC(C3)C2C(=O)O)cc1 (configuration not stated)	inconclusive: 49.5% [activator] [at 46.1 µM]	–
Fc1ccc(-n2cc(CNCCc3ccccn3)c(-c3ccccc3Cl)n2)cc1	–	inconclusive: 15.8 µM [inhibitor, single point]
O=C(COC(=O)c1n[nH]c2ccccc12)Nc1ccc(Cl)cc1[N+](=O)[O-]	–	inconclusive: 10 µM [inhibitor, single point]
COc1ccc(-c2cc(C(=O)NCCN3CCOCC3)c3ccccc3n2)cc1	inactive: 6.39%	–
COc1cccc(NC(=S)N2CCc3cc(OC)c(OC)cc3C2COc2ccc3c(C)cc(=O)oc3c2)c1 (configuration not stated)	–	inconclusive: 35.5 µM [inhibitor, single point]
C[C@H](N)c1nnc(SCc2ccc(Cl)cc2Cl)o1	–	inconclusive: 0.164 µM [inhibitor, partial curve, poor fit]
O=C(Nc1cccc(S(=O)(=O)N2CCCCCC2)c1)C1CCN(C(=O)c2ccc(F)cc2)CC1	–	inconclusive: 22.4 µM [inhibitor, partial curve, poor fit]
O=C1N=C(N2CCOCC2)S/C1=C1\C(=O)N(Cc2ccccc2)c2ccccc21	–	inconclusive: 35.5 µM [activator, partial curve, poor fit]
CC(C)Cn1c(O)c(N=NC(=O)c2cccc(S(=O)(=O)N3CCCCC3)c2)c2ccccc21	–	inconclusive: 7.08 µM [inhibitor, partial curve, poor fit]
COC(=O)Cc1c(CSc2ccccc2)oc2ccc(O)c(CN(C)C)c12	inactive: 0.326% [at 46.1 µM]	–
Cc1ccc(C(=O)N(CN2CCCC2=O)c2ccccc2)cc1C	inactive: 21.7%	–
Cc1ccccc1OCC(=O)NNC(=O)Nc1ccc(Cl)cc1	–	inconclusive: 1.58 µM [inhibitor, partial curve, poor fit]
CCCNC(=O)CCc1c(C)nc2nc(C)nn2c1C	inactive: 7.64% [at 46.1 µM]	–
O=C(CSC1c2ccccc2-c2ccccc21)N/N=C/c1ccc(C(=O)O)cc1	inactive: -15.2% [at 46.1 µM]	–
CN(C1=C(NC(=O)c2ccccc2)C(=O)c2ccccc2C1=O)C1CCS(=O)(=O)C1 (configuration not stated)	–	inconclusive: 29.1 µM [inhibitor, single point]
O=C(Nc1ccccc1Cl)c1ccc(-c2ccccn2)s1	–	inconclusive: 11.2 µM [inhibitor, partial curve, poor fit]
O=C1C(=C(I)I)c2ccccc2-c2ccccc21	–	inconclusive: 11.2 µM [inhibitor, partial curve, poor fit]
O=C(/C=C/c1cccc2ccccc12)c1ccncc1	–	inconclusive: 20 µM [inhibitor, partial curve, poor fit]
O=C(COn1nnc2ccc(Cl)cc21)NC12CC3CC(CC(C3)C1)C2	–	inconclusive: 29.1 µM [inhibitor, single point]
O=C(NC(=S)Nc1ccc(-c2ccc(CO)o2)cc1)c1cccs1	inactive: -1.6% [at 46.1 µM]	–

From PubChem BioAssay AID540276 (National Center for Advancing Translational Sciences (NCATS), 2011)
